The text below walks through data of PMC7806468.

Chains of the proteins cited; added tags and fusions are not shown. Lines headed by an entry give the natural chain unless they say otherwise; changes in a name come on top.
UniProt P34897: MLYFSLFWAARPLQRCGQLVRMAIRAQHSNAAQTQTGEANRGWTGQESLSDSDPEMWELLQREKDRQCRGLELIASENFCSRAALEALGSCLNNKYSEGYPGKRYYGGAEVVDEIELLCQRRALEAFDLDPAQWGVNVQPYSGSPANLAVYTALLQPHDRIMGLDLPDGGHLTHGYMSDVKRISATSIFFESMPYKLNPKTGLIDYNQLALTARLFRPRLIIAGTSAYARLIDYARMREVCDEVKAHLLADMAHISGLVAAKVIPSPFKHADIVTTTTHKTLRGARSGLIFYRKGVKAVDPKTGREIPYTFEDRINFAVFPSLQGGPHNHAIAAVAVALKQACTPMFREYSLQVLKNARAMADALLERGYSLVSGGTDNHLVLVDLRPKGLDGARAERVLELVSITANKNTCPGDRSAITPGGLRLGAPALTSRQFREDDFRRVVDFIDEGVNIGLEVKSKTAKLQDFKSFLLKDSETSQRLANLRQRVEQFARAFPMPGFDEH
UniProt P35222: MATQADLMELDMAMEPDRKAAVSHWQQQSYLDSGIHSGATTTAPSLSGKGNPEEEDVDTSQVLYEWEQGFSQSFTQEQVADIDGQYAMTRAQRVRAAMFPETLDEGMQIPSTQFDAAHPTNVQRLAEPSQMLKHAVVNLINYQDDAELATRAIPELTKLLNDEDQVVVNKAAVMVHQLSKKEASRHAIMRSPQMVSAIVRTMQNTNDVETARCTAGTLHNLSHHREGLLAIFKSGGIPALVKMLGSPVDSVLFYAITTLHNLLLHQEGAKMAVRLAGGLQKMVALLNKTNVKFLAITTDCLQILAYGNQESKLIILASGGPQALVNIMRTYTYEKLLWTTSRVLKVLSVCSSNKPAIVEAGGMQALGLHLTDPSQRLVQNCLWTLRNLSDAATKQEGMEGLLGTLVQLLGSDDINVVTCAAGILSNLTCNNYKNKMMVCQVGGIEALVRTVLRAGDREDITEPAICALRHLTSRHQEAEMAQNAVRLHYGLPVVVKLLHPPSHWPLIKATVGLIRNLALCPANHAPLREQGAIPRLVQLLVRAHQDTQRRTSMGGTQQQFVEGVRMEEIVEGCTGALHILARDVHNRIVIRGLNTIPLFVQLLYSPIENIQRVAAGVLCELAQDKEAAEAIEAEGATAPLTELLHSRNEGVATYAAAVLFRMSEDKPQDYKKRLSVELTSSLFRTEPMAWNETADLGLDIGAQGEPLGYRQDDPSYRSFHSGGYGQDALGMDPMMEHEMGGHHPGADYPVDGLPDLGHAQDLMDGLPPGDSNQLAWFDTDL

These are yes or no findings as the source states them, for the method shown. In cells and extracts the contact can be indirect.

The target of the assay is Flag-tagged SHMT2 K64R (shRNA-resistant) (human) (UniProt P34897). The assay is described as follows: co-IP; stable SHMT2-knockdown HCT116 and DLD-1 cells re-expressing shRNA-resistant Flag-SHMT2α or K64R; immunoprecipitation with the indicated antibodies.

For the substance β-catenin (from UniProt P35222 1-781), the binding entry is on record as “no binding”.
